Experimental data taken from patent US20220153859A1.
These are yes or no findings as the source states them, for the method shown. Some results given as binding are weak or reduced against the parent protein; the word gives no strength.

By UniProt entry, the sequences of proteins in these tests, tags left out. Residues count along the entry.
UniProt P02724, residues 20-150: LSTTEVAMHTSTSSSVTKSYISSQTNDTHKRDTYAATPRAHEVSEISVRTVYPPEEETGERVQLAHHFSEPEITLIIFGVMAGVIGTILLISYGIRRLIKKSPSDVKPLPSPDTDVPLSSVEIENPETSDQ

Target: Human glycophorin A (format not specified) (human) (UniProt P02724)
Assay: screen of humanized Fabs, kinetic assays with human and cyno GPA and red blood cells

- binding: binds
B1: hF-3-103M1 Fab (humanized 3-103, clone M1; parental / wild-type Fab) (Fab, V domains shown)
VH: QVQLVQSGAEVKKPGASVKVSCTASGFNIKDTYMLWVRQAPGQGLEWMGRIDPANANSRYDPKFQGRVTITADTSTNTAYMELSSLRSEDTAVYYCVDGYMFAYWGQGTLVTVSS
VL: DVVMTQTPLSLSVTPGQPASISCKSSQSLLYSNGKTYLHWLLQKPGQSPQRLIYLVSKLDSGVPDRFSGSGSGTDFTLKISRVEAEDVGVYYCVQGTHFPLTFGQGTKLEIKR
